{"sequences": {"note": "The chains behind the UniProt entries cited, without tags or fusion partners.", "UniProt Q0JBA9, entry or part of it": "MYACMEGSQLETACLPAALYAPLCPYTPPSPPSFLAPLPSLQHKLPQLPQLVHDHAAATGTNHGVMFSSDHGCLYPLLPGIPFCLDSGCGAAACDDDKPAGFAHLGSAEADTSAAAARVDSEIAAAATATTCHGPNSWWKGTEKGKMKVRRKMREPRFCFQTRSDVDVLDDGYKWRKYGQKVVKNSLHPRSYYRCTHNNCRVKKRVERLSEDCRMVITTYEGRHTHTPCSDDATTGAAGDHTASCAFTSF"}, "source": "paper PMC7819943", "about": "“Rice protein-binding microarrays: a tool to detect cis-acting elements near promoter regions in rice”", "note": "The list shows a part of the results."}
{"molecular_target": "OsWRKY34 (Oryza sativa, UniProt Q0JBA9 1-250)", "test": "protein-binding microarray (RPBM); PBS, 2% BSA, 51.3 ng/ul salmon testes DNA, 50 uM zinc acetate, 200 nM TF, 25 C, 1 h; high values mean tight binding", "details": "protein: recombinant; tags: N-terminal polyhistidine and DsRed monomer fusion (pET32a); label: CyDye5-dUTP incorporated in the synthesized complementary strand; 3' TTTTT single-stranded linker to array surface; dsDNA, one strand shown", "method_in_brief": "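Polyhistidine-tagged DsRed fusions of transcription factors, joined at the N-terminus, were expressed in E. coli BL21-CodonPlus and isolated on Ni–NTA. They were incubated at 200 nM for 1 h at 25 °C on a custom Agilent array, double-stranded and BSA-blocked, in PBS with 2% BSA, salmon testes DNA and 50 µM zinc acetate. The binding signal is per-feature fluorescence intensity (arbitrary units) read on an Axon 4000B scanner after washing.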"}
{"sequence": "CCCATTACTCCTGTAGTCGAGGGGTTTGCTATTCTGGCTCCGGAGTCACCTAGTGCAG", "binding signal": "9710 fluorescence intensity (a.u.)"}
{"sequence": "CTTTGTTGTTTTCTTCTGTTAGTGTCTGTATTATTCATTACGGAGTCACCTAGTGCAG", "binding signal": "9880 fluorescence intensity (a.u.)"}
{"sequence": "ACACACTGTCACCTCAGCTGACCTCTGATGATCAACGAAACGGAGTCACCTAGTGCAG", "binding signal": "9560 fluorescence intensity (a.u.)"}
{"sequence": "AGATACATACGCCCACCCGCCGCGCCCACTTCCGTCCAAACGGAGTCACCTAGTGCAG", "binding signal": "8490 fluorescence intensity (a.u.)"}
{"sequence": "CAACCTCTTGCTAACTTTCCTTTGAGTCTATCTCTCTCATCGGAGTCACCTAGTGCAG", "binding signal": "10700 fluorescence intensity (a.u.)"}
{"sequence": "AGTCCAGGAGGGTTAGTTCTGTTCTTACGAAATGTTTCTGCGGAGTCACCTAGTGCAG", "binding signal": "8760 fluorescence intensity (a.u.)"}
{"sequence": "AGGAGGGTGACTTTTATAGAGGGCTATGGGTGACTAGTTTCGGAGTCACCTAGTGCAG", "binding signal": "8180 fluorescence intensity (a.u.)"}
{"sequence": "CGGTTTTGTATAGTTTAGGGGTGAAGATTTCTGGTTTTGTCGGAGTCACCTAGTGCAG", "binding signal": "13500 fluorescence intensity (a.u.)"}
{"sequence": "CTTCGAGATGCTATTTTGACCAACGATATTGTGATAGTTTCGGAGTCACCTAGTGCAG", "binding signal": "8510 fluorescence intensity (a.u.)"}
{"sequence": "TTTTTTTGTTCAGAGACTTCTGCTCTCGGGTTAGTTCGGTCGGAGTCACCTAGTGCAG", "binding signal": "8340 fluorescence intensity (a.u.)"}
{"sequence": "CTTGCTTTCTGCGTCGTCGTCTGCGTCTTCTTCTTCATTGCGGAGTCACCTAGTGCAG", "binding signal": "13000 fluorescence intensity (a.u.)"}
{"sequence": "CGCGTTTTGTATTCTTCGTTCGTATCTTCGTACTAGTCTCCGGAGTCACCTAGTGCAG", "binding signal": "8240 fluorescence intensity (a.u.)"}
{"sequence": "CATCCTAGCTACTGTTCTCTTTTATTTGATCCATCCAATACGGAGTCACCTAGTGCAG", "binding signal": "8730 fluorescence intensity (a.u.)"}
{"sequence": "AAAATGCCAGGTTGTACTTTGTTTCTACTATAGCTCCTAGCGGAGTCACCTAGTGCAG", "binding signal": "8250 fluorescence intensity (a.u.)"}
{"sequence": "CCGTGTATGTTTGTCTATTTGCATATTTCTTGAAAAGACACGGAGTCACCTAGTGCAG", "binding signal": "9020 fluorescence intensity (a.u.)"}
{"sequence": "GCTTTCCACCCGTTATTAGTGGGCCAGCCCATGAAAACGACGGAGTCACCTAGTGCAG", "binding signal": "8640 fluorescence intensity (a.u.)"}
{"sequence": "CCTCACATTACAGTGACCCACACCTTTGCATGTCGCCTCACGGAGTCACCTAGTGCAG", "binding signal": "12000 fluorescence intensity (a.u.)"}
{"sequence": "TATCGTCCGGTGCTCCTCGTCCATGTCAACAGCTACCATACGGAGTCACCTAGTGCAG", "binding signal": "9850 fluorescence intensity (a.u.)"}
{"sequence": "AGTATAAGATTAATATTAATTCATCCATTTCAGTTATTTCCGGAGTCACCTAGTGCAG", "binding signal": "8280 fluorescence intensity (a.u.)"}
{"sequence": "CAATCCTGGAACTCGATTATTAATTGTATGTTGCCAACCGCGGAGTCACCTAGTGCAG", "binding signal": "10400 fluorescence intensity (a.u.)"}
{"sequence": "CCACTTTTCAAACCACCGAAGGATTCTATTTATATCGGTTCGGAGTCACCTAGTGCAG", "binding signal": "8110 fluorescence intensity (a.u.)"}
{"sequence": "CATGGTTGTAGTATTTCACTCCTTACAATCTTGACCAATTCGGAGTCACCTAGTGCAG", "binding signal": "8830 fluorescence intensity (a.u.)"}
{"sequence": "TCCATGTTGAATACTTGCTGTTGCCTGCATTGCTTCTGCACGGAGTCACCTAGTGCAG", "binding signal": "8380 fluorescence intensity (a.u.)"}
{"sequence": "CAGACTCAGTGCTATTTCTGTAGATTATCCTGTGTATTTTCGGAGTCACCTAGTGCAG", "binding signal": "11900 fluorescence intensity (a.u.)"}
{"sequence": "TACAGAGTTTCTTTCATCATTTCGATCACGCAATTCACATCGGAGTCACCTAGTGCAG", "binding signal": "8280 fluorescence intensity (a.u.)"}
{"sequence": "GTTGCACGGTCGTGCCTTTCGTTTTTCGATGTTCAATCTACGGAGTCACCTAGTGCAG", "binding signal": "8200 fluorescence intensity (a.u.)"}
{"sequence": "CGGGAGGAGGGAGGTTGTTTCGTCTGGGGTTTGATTGGGACGGAGTCACCTAGTGCAG", "binding signal": "18200 fluorescence intensity (a.u.)"}
{"sequence": "TGTCAACACATTCACCTGTATTTTTGGTATTATCCCATTGCGGAGTCACCTAGTGCAG", "binding signal": "9910 fluorescence intensity (a.u.)"}
{"sequence": "CTGCATCTTCCAGCTCAAGTATTATATTGCTTATCGATTTCGGAGTCACCTAGTGCAG", "binding signal": "10200 fluorescence intensity (a.u.)"}
{"sequence": "ACTTTTTCGTCACATCGTTTTAATTTTAACATATTTTTAACGGAGTCACCTAGTGCAG", "binding signal": "8610 fluorescence intensity (a.u.)"}
{"sequence": "GTTCGATGTGACAGGGTGCAAAATTTCGGGGTGGGATCTACGGAGTCACCTAGTGCAG", "binding signal": "13300 fluorescence intensity (a.u.)"}
{"sequence": "GTGACGTGCTGGATTCTTGTCTATTACTCGTAAGATAGTTCGGAGTCACCTAGTGCAG", "binding signal": "9200 fluorescence intensity (a.u.)"}
{"sequence": "CACTCACCAGCTCCTGTTCCTGCTTTACTTGTCGTTGCTGCGGAGTCACCTAGTGCAG", "binding signal": "10900 fluorescence intensity (a.u.)"}
{"sequence": "GCCGCCGCCCGCTTCCTCTCCTCCATCTCCCGAGAGATTTCGGAGTCACCTAGTGCAG", "binding signal": "8280 fluorescence intensity (a.u.)"}
{"sequence": "GTCCTCGCTGCGGTCTTCTCCCTTCCTTCTCCTAGTCTAACGGAGTCACCTAGTGCAG", "binding signal": "11100 fluorescence intensity (a.u.)"}
{"sequence": "TTCTTGGTTTTGAGTTCTCTTCTCGGTTTTCTCTTTAGCGCGGAGTCACCTAGTGCAG", "binding signal": "9000 fluorescence intensity (a.u.)"}
{"sequence": "CACCGCAAACTTTTCTCAGACTAATCACAGTTCCATCAACCGGAGTCACCTAGTGCAG", "binding signal": "8840 fluorescence intensity (a.u.)"}
{"sequence": "TTAAGTTTGTTTGCTTTTGGAAATACCGATTCGTGTTTGACGGAGTCACCTAGTGCAG", "binding signal": "8220 fluorescence intensity (a.u.)"}
{"sequence": "ATAGTATATCACTAGTCTTGGAGTGCAGCCGCGCACTAGTCGGAGTCACCTAGTGCAG", "binding signal": "8120 fluorescence intensity (a.u.)"}
{"sequence": "TATATGTTTGGCGCTCAAAACCTAATAGTAGTTCTTATGTCGGAGTCACCTAGTGCAG", "binding signal": "8300 fluorescence intensity (a.u.)"}
{"sequence": "ACATATTCTTTTTTTTTCCCGATTTTTCTTTTACCGCGTTCGGAGTCACCTAGTGCAG", "binding signal": "12000 fluorescence intensity (a.u.)"}
{"sequence": "GCCATTATTACGGGTCCATGCCAACACATGTGTAACACAACGGAGTCACCTAGTGCAG", "binding signal": "9250 fluorescence intensity (a.u.)"}
{"sequence": "GGAACATCTTCTCCGGTTCTCCCTCACCGCTCACTGGCTCCGGAGTCACCTAGTGCAG", "binding signal": "9960 fluorescence intensity (a.u.)"}
{"sequence": "AATTCTCGTCTTCTCGGAGGTTTCTGAGGGGAGGGAGAGGCGGAGTCACCTAGTGCAG", "binding signal": "8480 fluorescence intensity (a.u.)"}
{"sequence": "TGCTGAATCTTTTTTTTTATTTTTCTATAGTATTATTAAACGGAGTCACCTAGTGCAG", "binding signal": "8040 fluorescence intensity (a.u.)"}
{"sequence": "TTTTTAGCTTTAAGTGCCACGTTAACGTCATGTCATCGAGCGGAGTCACCTAGTGCAG", "binding signal": "10000 fluorescence intensity (a.u.)"}
{"sequence": "AACCAAGCGCCATTCTTGCAAGCGCGATTCCCTTGCCATGCGGAGTCACCTAGTGCAG", "binding signal": "8220 fluorescence intensity (a.u.)"}
{"sequence": "CGCTCGCCCGCCACTGCCGCTCTGCTCAGCCCGCCGCGCACGGAGTCACCTAGTGCAG", "binding signal": "8770 fluorescence intensity (a.u.)"}
{"sequence": "AATATCACTTTGACTTGTTTGGTACTGTCCAATGCCAATACGGAGTCACCTAGTGCAG", "binding signal": "9060 fluorescence intensity (a.u.)"}
{"sequence": "GCTTATGTTGGCTGCTGCATATGATCCGTGCTCCCTGATTCGGAGTCACCTAGTGCAG", "binding signal": "9550 fluorescence intensity (a.u.)"}
{"sequence": "ACCTTCTTTTGCTGTTAATCACGGTTAGGTTTGAGTTAATCGGAGTCACCTAGTGCAG", "binding signal": "9070 fluorescence intensity (a.u.)"}
{"sequence": "GTGTAGATCTATCTCTTGTATGCGAGTCAACACTAATCATCGGAGTCACCTAGTGCAG", "binding signal": "8170 fluorescence intensity (a.u.)"}
{"sequence": "ATCAAGGACTAACCATGCCATCCCACGATCCGATCCCTGCCGGAGTCACCTAGTGCAG", "binding signal": "8390 fluorescence intensity (a.u.)"}
{"sequence": "CCTATCCTCTGCAGCTGCACACCTCTAGTATATAGCTGACCGGAGTCACCTAGTGCAG", "binding signal": "9060 fluorescence intensity (a.u.)"}
